From PubChem BioAssay AID504444 (National Center for Advancing Translational Sciences (NCATS), 2011)
The whole screen tested about 360,000 compounds, of which about 7,500 (2.1%) were called active. The shares of active, inactive and inconclusive entries below differ from those in the screen. Calls come from the whole dose curve; as a rule, active = well fitted inhibition curve with a large enough effect; inconclusive = small, poorly fitted or top-dose-only effect, or effect the other way; inactive = flat fitted curve, though single readings scatter. A potency beside an inconclusive call is a rough fit, not a confirmed value.

Test: Nrf2 qHTS screen for inhibitors; note: nearly all actives have a fitted effect of over 60% in size
Conditions: A549 ARE-Fluc reporter, luciferase luminescence, 18-24 h; series mostly up to 46 µM
How it was run: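 Concentration-response testing used A549 ARE_Fluc cells at 5000 cells/well. Following an 18-24 h compound incubation, viability was read by fluorescence (Ex 405/Em 525) and luciferase output by luminescence.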
Potency is the fitted concentration of half-maximal effect.

Compound | Potency
CCN(C(=O)C1CCCN(c2ncnc3onc(-c4ccc(F)cc4)c23)C1)c1ccccc1 (stereo not drawn) | inactive
CCc1nnc(NC(=O)CCC(=O)N2CCN(Cc3cc(F)ccc3OC)CC2)s1 | inconclusive: 4.11 µM [falling, partial curve, poor fit]
O=C(NC1CCCC1)c1cc(-c2ccccc2)on1 | inconclusive: 11.6 µM [activator, partial curve]
COc1ccccc1NS(=O)(=O)c1cc([N+](=O)[O-])ccc1N/N=C/c1c[nH]c2ccccc12 | inconclusive: 18.4 µM [falling, single point]
COc1ccc(CCNC(=O)COC(=O)/C=C/c2cc(OC)c(OC)c(OC)c2)cc1OC | inconclusive: 0.231 µM [falling, partial curve, poor fit]
O=C(c1cccs1)N1CCN(c2ncc(C(F)(F)F)cc2Cl)CC1 | inconclusive: 20.6 µM [falling, single point]
COc1ccc(C(=O)CNc2cccc(F)c2)cc1 | inconclusive: 13 µM [activator, partial curve]
CC(C)c1ccc(-c2nnn(Cc3nc4ccccc4s3)n2)cc1 | inconclusive: 10.3 µM [falling, partial curve]
O=C1CC(c2ccco2)CC2=C1C1c3ccccc3C(=O)N1c1ccccc1N2 (stereo not drawn) | inconclusive: 29.1 µM [activator, single point]
CCc1ccc(-c2nnn(CCC#N)n2)cc1 | inconclusive: 20.6 µM [activator, single point]
CCCN(CCC)CCNC(=O)CCC(=O)Nc1ccc2nc(N3CCOCC3)cc(C)c2c1 | inconclusive: 2.91 µM [activator, full curve]
Clc1ccc(-n2ncc3c(N4CCCCCC4)ncnc32)cc1 | inconclusive: 0.0291 µM [activator, full curve, poor fit]
CCOC(=O)c1cnc2c(-c3ccc(Cl)cc3)cnn2c1C | inconclusive: 1.46 µM [activator, partial curve, poor fit]
CCOC(=O)C1(C(F)(F)F)N=C(N(C)C)OC(N(C)C)=N1 | inconclusive: 29.1 µM [activator, single point]
Cn1c(CCN2CCN(c3ccccn3)CC2)nc2cc(NS(=O)(=O)c3ccccc3)ccc21 | inconclusive: 18.4 µM [falling, single point]
CC(=O)N1c2c(cc(Br)cc2S(=O)(=O)N2CCN(c3ccccc3F)CC2)CC1C (stereo not drawn) | active: 23.1 µM
COc1ccc(NS(=O)(=O)c2cc([N+](=O)[O-])ccc2N/N=C/c2c(C)[nH]c3ccccc23)cc1 | inconclusive: 20.6 µM [falling, partial curve, poor fit]
COc1ccccc1C(=O)NNC(=O)c1cccc(Cl)c1 | inconclusive: 5.8 µM [activator, partial curve]
Cc1cccc(OCC(=O)N(Cc2ccc(C(C)C)cc2)Cc2ccco2)c1C | inconclusive: 14.6 µM [falling, partial curve]
O=c1[nH]c(CSc2ncc(-c3ccc(F)cc3)n2Cc2ccco2)nc2ccccc12 | inconclusive: 20.6 µM [falling, single point]
O=C(Nc1nnc(S(=O)(=O)N2CCCC2)s1)c1ccccc1F | inconclusive: 5.17 µM [activator, full curve]

11 compounds out of the list, ordered by molecular weight, high to low.
Compound | Potency
Cn1c(CCN2CCN(c3ccccn3)CC2)nc2cc(NS(=O)(=O)c3ccccc3)ccc21 | inconclusive: 18.4 µM [falling, single point]
CCCN(CCC)CCNC(=O)CCC(=O)Nc1ccc2nc(N3CCOCC3)cc(C)c2c1 | inconclusive: 2.91 µM [activator, full curve]
COc1ccccc1NS(=O)(=O)c1cc([N+](=O)[O-])ccc1N/N=C/c1c[nH]c2ccccc12 | inconclusive: 18.4 µM [falling, single point]
COc1ccc(CCNC(=O)COC(=O)/C=C/c2cc(OC)c(OC)c(OC)c2)cc1OC | inconclusive: 0.231 µM [falling, partial curve, poor fit]
CCc1nnc(NC(=O)CCC(=O)N2CCN(Cc3cc(F)ccc3OC)CC2)s1 | inconclusive: 4.11 µM [falling, partial curve, poor fit]
O=C1CC(c2ccco2)CC2=C1C1c3ccccc3C(=O)N1c1ccccc1N2 (stereo not drawn) | inconclusive: 29.1 µM [activator, single point]
O=C(c1cccs1)N1CCN(c2ncc(C(F)(F)F)cc2Cl)CC1 | inconclusive: 20.6 µM [falling, single point]
CC(C)c1ccc(-c2nnn(Cc3nc4ccccc4s3)n2)cc1 | inconclusive: 10.3 µM [falling, partial curve]
CCOC(=O)c1cnc2c(-c3ccc(Cl)cc3)cnn2c1C | inconclusive: 1.46 µM [activator, partial curve, poor fit]
COc1ccc(C(=O)CNc2cccc(F)c2)cc1 | inconclusive: 13 µM [activator, partial curve]
CCc1ccc(-c2nnn(CCC#N)n2)cc1 | inconclusive: 20.6 µM [activator, single point]

(listing goes on)

Compound | Potency
COc1ccc(OCCC(=O)N2CCCCC2)cc1 | inconclusive: 7.31 µM [activator, partial curve]
CCN(CC)c1ccc(S(=O)(=O)N2CCCCC2)cc1NC(=O)CSCc1c(C)noc1C | inconclusive: 23.1 µM [falling, single point]
O=C(NCCc1ccccc1)c1ccc(CSc2nc3ccncc3n2Cc2ccccc2F)cc1 | inconclusive: 18.4 µM [falling, single point]
O=C(Cn1ncc2c([nH]c3ccccc32)c1=O)NCc1cccc(Cl)c1 | inactive
Cn1c(=O)c2c(ncn2CC(N)=O)n(C)c1=O | inconclusive: 6.51 µM [activator, single point]
CCN1C(=O)[C@H]2[C@@H](c3ccc(-c4ccc(F)cc4)c(OC)c3)N[C@@](Cc3ccccc3)(C(=O)OC)[C@H]2C1=O | inconclusive: 25.9 µM [falling, single point]
CCOP(=O)(OCC)/C(C#N)=C/c1ccc([N+](=O)[O-])cc1 | inconclusive: 0.411 µM [falling, full curve, poor fit]
COc1ccc(-c2cc(C(=O)N3CCN(c4ccc(F)cc4)CC3)no2)cc1OC | inconclusive: 29.1 µM [falling, single point]
O=S(=O)(c1ccccc1F)N1CCC(c2nc3ccccc3[nH]2)CC1 | inconclusive: 18.4 µM [falling, single point]
COc1cccc(CNC(=O)CCCn2nc(C)n3c(cc4sccc43)c2=O)c1 | inconclusive: 20.6 µM [falling, partial curve]
COc1ccc(C2CC(=O)c3c([nH]c(C(=O)OC4CCCCCC4)c3C)C2)cc1OC (stereo not drawn) | inconclusive: 2.31 µM [falling, full curve]
COc1ccc(CCNC(=O)CC(c2ccccc2)c2cccc(C)c2O)cc1OC (stereo not drawn) | inconclusive: 20.6 µM [falling, single point]
Cc1sc2ccc3sccc3c2[n+]1C | inactive
CCc1ccccc1OCC(=O)Nc1cc(S(=O)(=O)N2CCOCC2)ccc1N1CCCCC1 | inconclusive: 18.4 µM [falling, single point]
Cc1ccc(SCCC(=O)OCC(=O)Nc2ccc(C(N)=O)cc2)cc1 | inconclusive: 18.4 µM [activator, partial curve, poor fit]
O=C(O)C1C2C=CC(C2)C1C(=O)NCCc1ccccc1 (stereo not drawn) | inconclusive: 29.1 µM [falling, single point]
CCCc1n(CC(O)COC2CCCCC2)c2ccccc2[n+]1C (stereo not drawn) | inconclusive: 20.6 µM [falling, single point]
CCn1cc(C(=O)NCc2cccs2)c(=O)c2cc(S(=O)(=O)N3CCOCC3)ccc21 | inconclusive: 2.31 µM [falling, partial curve, poor fit]
CC1Cc2ccccc2N1C(=O)Cc1cccs1 (stereo not drawn) | inconclusive: 2.91 µM [activator, partial curve, poor fit]
COc1cc(/C=C/C(=O)OCC(=O)c2c(N)n(C)c(=O)n(C)c2=O)ccc1OCC#N | inconclusive: 29.1 µM [falling, single point]
Fc1ccc(OCc2nc(-c3cccs3)no2)cc1 | inconclusive: 16.4 µM [activator, partial curve]

Compound | Potency
O=[N+]([O-])c1cccc(/C=N/n2c(COc3ccccc3)n[nH]c2=S)c1 | inconclusive: 29.1 µM [falling, partial curve, poor fit]
O=C(Cc1ccccc1)c1ccc(N2CCOCC2)cc1 | inconclusive: 20.6 µM [activator, single point]
CCOc1ccc2nc(NC(=O)COC)sc2c1 | inconclusive: 2.59 µM [activator, full curve]
COc1cc(OC)cc(-c2c(C#Cc3ccsc3)c3cc(-c4ccc(OC)cc4F)ccc3n2C)c1 | inactive
COc1ccc(CCN(C)C(=O)CCc2nnc(-c3ccccc3)o2)cc1OC | inconclusive: 9.2 µM [activator, partial curve]
Cn1/c(=N\NC(=O)C2CCCCC2)sc2ccccc21 | inconclusive: 18.4 µM [activator, single point]
COc1ccc(SC[C@H](C)CN2CC[C@H](NC(=O)OCc3ccccc3)CCC2=O)cc1 | inconclusive: 18.4 µM [falling, single point]
Cc1sc2ncnc(N3CCC(C(=O)Nc4ccc(Br)cc4Br)CC3)c2c1C | active: 20.6 µM
CCOc1cccc(-c2cc(=O)[nH][nH]2)c1 | inactive
CC(C)c1ccc(N2C(=O)CC(Sc3ncccn3)C2=O)cc1 (stereo not drawn) | inconclusive: 6.51 µM [activator, partial curve, poor fit]
COC(=O)c1ccc(CSc2nc3c(c(=O)n2-c2ccc(F)cc2)SCC3)o1 | inconclusive: 29.1 µM [falling, single point]
Cc1nc(NS(=O)(=O)c2ccccc2)sc1C(=O)NN | inconclusive: 29.1 µM [activator, single point]
COc1ccc(NC(=O)C(=O)NCC(c2cccnc2)N2CCc3ccccc3C2)cc1 (stereo not drawn) | inconclusive: 29.1 µM [activator, single point]
O=C(c1nc(-c2ccccc2)n(-c2ccccc2)n1)N1CCN(S(=O)(=O)c2ccccc2)CC1 | inconclusive: 29.1 µM [falling, single point]
COc1cccc(NC(=O)c2ccc(OC(F)(F)F)cc2)c1 | inconclusive: 29.1 µM [activator, single point]
CCCCNc1c(-c2ccc(SC(C)CC)cc2)nc2ccccn12 (stereo not drawn) | inactive
CCc1nc(Nc2ccc(N3CCN(C(C)=O)CC3)cc2)c2oc3ccccc3c2n1 | inconclusive: 16.4 µM [falling, single point]
O=C(c1ccco1)N1CCC(c2ccccc2)C1 (stereo not drawn) | inconclusive: 2.59 µM [activator, full curve]
COc1ccc(C2=CC(=O)C[C@H](c3ccc(F)cc3)C2)c(OC)c1 | inactive
N=C1/C(=C\c2ccc(OC(=O)c3ccco3)cc2)C(=O)N=C2SC=NN12 | inconclusive: 10.3 µM [activator, partial curve]
O=C(O)CCSc1ncnc2sc(-c3ccccc3)cc12 | active: 2.06 µM
